Source: paper PMC5001721
These are yes or no findings as the source states them, for the method shown. In cells and extracts the contact can be indirect. A yes stands for co-enrichment or nearness to the bait. Other partners may have been found.

Protein sequences, listed by entry. Tags and fused reporters are not part of them.
UniProt P9WNM1: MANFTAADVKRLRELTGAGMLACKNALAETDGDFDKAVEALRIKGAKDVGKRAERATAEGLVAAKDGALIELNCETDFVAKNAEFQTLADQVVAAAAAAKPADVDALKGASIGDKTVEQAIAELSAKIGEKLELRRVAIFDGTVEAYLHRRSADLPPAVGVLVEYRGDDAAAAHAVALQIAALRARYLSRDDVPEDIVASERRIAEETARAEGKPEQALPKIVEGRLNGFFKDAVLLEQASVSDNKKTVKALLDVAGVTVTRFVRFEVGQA
UniProt P9WNN1: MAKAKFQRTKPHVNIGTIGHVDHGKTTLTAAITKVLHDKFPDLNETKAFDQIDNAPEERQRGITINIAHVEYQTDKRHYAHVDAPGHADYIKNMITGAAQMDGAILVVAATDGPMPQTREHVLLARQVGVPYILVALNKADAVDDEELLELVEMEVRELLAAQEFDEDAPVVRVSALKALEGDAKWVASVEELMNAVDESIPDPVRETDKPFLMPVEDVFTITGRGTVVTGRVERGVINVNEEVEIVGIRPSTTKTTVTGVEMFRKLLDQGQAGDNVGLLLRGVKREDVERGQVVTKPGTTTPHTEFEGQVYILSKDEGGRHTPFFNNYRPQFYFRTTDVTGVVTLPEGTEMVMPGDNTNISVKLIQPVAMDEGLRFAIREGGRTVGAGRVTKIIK
UniProt P0CE47: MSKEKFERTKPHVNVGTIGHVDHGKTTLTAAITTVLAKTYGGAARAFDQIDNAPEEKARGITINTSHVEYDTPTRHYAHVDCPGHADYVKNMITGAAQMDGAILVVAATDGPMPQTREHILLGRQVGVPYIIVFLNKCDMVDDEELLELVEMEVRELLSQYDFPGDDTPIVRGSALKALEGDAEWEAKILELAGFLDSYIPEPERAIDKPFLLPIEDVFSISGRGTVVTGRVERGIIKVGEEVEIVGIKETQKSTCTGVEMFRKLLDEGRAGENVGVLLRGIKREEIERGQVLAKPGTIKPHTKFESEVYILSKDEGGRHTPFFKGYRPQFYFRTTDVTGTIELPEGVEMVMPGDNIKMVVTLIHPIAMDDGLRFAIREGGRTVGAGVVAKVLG

Biological target: M. tuberculosis elongation factor Ts (EF-Ts) with an N-terminal 6xHis-tag and linker (M. tuberculosis) (UniProt P9WNM1)
Test: affinity purification with mass spectrometry

Substance: M. tuberculosis elongation factor Tu (EF-Tu) (from UniProt P9WNN1 1-396)
- binding: binds

Substance: E. coli EF-Tu (from UniProt P0CE47 1-394)
- binding: binds
